Experimental data taken from article PMC11923994.
No constants are given. Whether binding was seen depends on the method and setting. In cells and extracts the contact can be indirect. Some results given as binding are weak or reduced against the parent protein; the word gives no strength.

Molecular target: T1, SOX9, P48436
T1 chain: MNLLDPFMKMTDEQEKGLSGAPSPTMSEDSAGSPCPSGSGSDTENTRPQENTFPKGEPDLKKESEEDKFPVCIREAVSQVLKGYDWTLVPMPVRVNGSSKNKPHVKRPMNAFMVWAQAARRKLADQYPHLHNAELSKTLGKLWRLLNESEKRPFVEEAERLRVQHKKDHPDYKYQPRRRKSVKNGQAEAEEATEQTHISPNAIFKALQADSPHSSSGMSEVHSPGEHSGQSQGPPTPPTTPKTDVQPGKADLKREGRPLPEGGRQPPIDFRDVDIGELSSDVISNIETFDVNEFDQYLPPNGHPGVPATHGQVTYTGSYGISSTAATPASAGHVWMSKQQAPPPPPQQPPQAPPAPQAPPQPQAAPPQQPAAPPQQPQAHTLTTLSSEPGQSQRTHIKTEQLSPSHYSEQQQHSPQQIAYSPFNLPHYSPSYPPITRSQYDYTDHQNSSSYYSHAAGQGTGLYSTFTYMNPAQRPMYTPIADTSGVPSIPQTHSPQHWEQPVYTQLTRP
Assay: co-IP; co-immunoprecipitation (CO-IP) 'under stable conditions'; bait, cells and buffers not told in the text shown (Figure S15, Supporting Information)
Conditions: remark: other sources report otherwise

B1: SIRT1, Q96EB6 1-747 (enzyme)
chain: MADEAALALQPGGSPSAAGADREAASSPAGEPLRKRPRRDGPGLERSPGEPGGAAPEREVPAAARGCPGAAAAALWREAEAEAAAAGGEQEAQATAAAGEGDNGPGLQGPSREPPLADNLYDEDDDDEGEEEEEAAAAAIGYRDNLLFGDEIITNGFHSCESDEEDRASHASSSDWTPRPRIGPYTFVQQHLMIGTDPRTILKDLLPETIPPPELDDMTLWQIVINILSEPPKRKKRKDINTIEDAVKLLQECKKIIVLTGAGVSVSCGIPDFRSRDGIYARLAVDFPDLPDPQAMFDIEYFRKDPRPFFKFAKEIYPGQFQPSLCHKFIALSDKEGKLLRNYTQNIDTLEQVAGIQRIIQCHGSFATASCLICKYKVDCEAVRGDIFNQVVPRCPRCPADEPLAIMKPEIVFFGENLPEQFHRAMKYDKDEVDLLIVIGSSLKVRPVALIPSSIPHEVPQILINREPLPHLHFDVELLGDCDVIINELCHRLGGEYAKLCCNPVKLSEITEKPPRTQKELAYLSELPPTPLHVSEDSSSPERTSPPDSSVIVTLLDQAAKSNDDLDVSESKGCMEEKPQEVQTSRNVESIAEQMENPDLKNVGSSTGEKNERTSVAGTVRKCWPNRVAKEQISRRLDGNQYLFLPPNRYIFHGAEVYSDSEDDVLSSSSCGSNSDSGTCQSPSLEEPMEDESEIEEFYNGLEDEPDVPERAGGAGFGTDGDDQEAINEAISVKQEVTDMNYPSNKS
With B1 the binding was “binds”.
